According to publication PMC9743594:
Results are given in words; binding and its absence hold for the method and conditions named. In cells and extracts the contact can be indirect. Some results given as binding are weak or reduced against the parent protein; the word gives no strength.

By UniProt entry, the sequences of proteins in these tests, tags left out. Residues count along the entry.
UniProt P22695, residues 15-453: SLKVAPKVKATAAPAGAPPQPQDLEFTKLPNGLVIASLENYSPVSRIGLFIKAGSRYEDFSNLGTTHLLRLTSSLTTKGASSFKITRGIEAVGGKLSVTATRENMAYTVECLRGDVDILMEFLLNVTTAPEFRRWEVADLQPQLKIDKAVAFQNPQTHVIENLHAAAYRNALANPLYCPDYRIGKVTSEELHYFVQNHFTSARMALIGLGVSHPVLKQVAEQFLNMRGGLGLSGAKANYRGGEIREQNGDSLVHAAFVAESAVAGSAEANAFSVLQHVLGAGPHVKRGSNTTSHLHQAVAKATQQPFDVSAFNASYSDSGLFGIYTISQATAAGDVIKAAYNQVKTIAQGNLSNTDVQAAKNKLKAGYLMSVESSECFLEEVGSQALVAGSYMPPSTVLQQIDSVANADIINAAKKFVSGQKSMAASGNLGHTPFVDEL
UniProt P47985, residues 79-274: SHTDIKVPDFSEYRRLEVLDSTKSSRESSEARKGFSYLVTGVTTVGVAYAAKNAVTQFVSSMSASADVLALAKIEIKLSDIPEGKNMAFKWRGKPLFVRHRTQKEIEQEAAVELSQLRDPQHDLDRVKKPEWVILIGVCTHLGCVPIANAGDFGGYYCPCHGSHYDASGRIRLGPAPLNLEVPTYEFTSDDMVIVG

B1: TRAP1 (endogenous) (protein, UniProt Q12931 60-704)
chain: STQTAEDKEEPLHSIISSTESVQGSTSKHEFQAETKKLLDIVARSLYSEKEVFIRELISNASDALEKLRHKLVSDGQALPEMEIHLQTNAEKGTITIQDTGIGMTQEELVSNLGTIARSGSKAFLDALQNQAEASSKIIGQFGVGFYSAFMVADRVEVYSRSAAPGSLGYQWLSDGSGVFEIAEASGVRTGTKIIIHLKSDCKEFSSEARVRDVVTKYSNFVSFPLYLNGRRMNTLQAIWMMDPKDVREWQHEEFYRYVAQAHDKPRYTLHYKTDAPLNIRSIFYVPDMKPSMFDVSRELGSSVALYSRKVLIQTKATDILPKWLRFIRGVVDSEDIPLNLSRELLQESALIRKLRDVLQQRLIKFFIDQSKKDAEKYAKFFEDYGLFMREGIVTATEQEVKEDIAKLLRYESSALPSGQLTSLSEYASRMRAGTRNIYYLCAPNRHLAEHSPYYEAMKKKDTEVLFCFEQFDELTLLHLREFDKKKLISVETDIVVDHYKEEKFEDRSPAAECLSEKETEELMAWMRNVLGSRVTNVKVTLRLDTHPAMVTVLEMGAARHFLRMQQLAKTQEERAQLLQPTLEINPRHALIKKLNQLRASEPGLAQLLVDQIYENAMIAAGLVDDPRAMVGRLNELLVKALERH

Columns and labels:
[1] = molecular target: UQCRC2 (endogenous), complex III core component (human (endogenous in HeLa, HCT116, PEA1)) (UniProt P22695); experiment: proximity ligation; Duolink in situ PLA on fixed, permeabilised HeLa cells (control, TRAP1-GFP expressing, shGFP/shTRAP1); standard medium, galactose in place of glucose (4.5 g/L) for 4 h, or low glucose (1 g/L) for 4 h
[2] = molecular target: UQCRFS1/Rieske protein (endogenous), catalytic subunit of complex III (human (endogenous in HeLa, PEA1)) (UniProt P47985); experiment: as above
[3] = molecular target: UQCRFS1/Rieske protein (endogenous), catalytic subunit of complex III (human (endogenous in HeLa, PEA1)) (UniProt P47985); experiment: proximity ligation; Duolink in situ PLA on fixed, permeabilised PEA1 cells; negative control with TRAP1 antibody only

Molecule | binding [1] | binding [2] | binding [3]
UQCRFS1/Rieske protein (endogenous), catalytic subunit of complex III (from UniProt P47985 79-274) | binds | – | –
B1 | – | no binding | no binding
